Measurements as given in paper PMC7862700.
The entries are a selection whose mix differs from that of the whole data set. At the low end of the ranking, values are background and their order means little.

Amino acid sequences for entries named in this document (tags omitted). A change or cut given only in a name is not applied to a line headed by its entry.
UniProt Q99607: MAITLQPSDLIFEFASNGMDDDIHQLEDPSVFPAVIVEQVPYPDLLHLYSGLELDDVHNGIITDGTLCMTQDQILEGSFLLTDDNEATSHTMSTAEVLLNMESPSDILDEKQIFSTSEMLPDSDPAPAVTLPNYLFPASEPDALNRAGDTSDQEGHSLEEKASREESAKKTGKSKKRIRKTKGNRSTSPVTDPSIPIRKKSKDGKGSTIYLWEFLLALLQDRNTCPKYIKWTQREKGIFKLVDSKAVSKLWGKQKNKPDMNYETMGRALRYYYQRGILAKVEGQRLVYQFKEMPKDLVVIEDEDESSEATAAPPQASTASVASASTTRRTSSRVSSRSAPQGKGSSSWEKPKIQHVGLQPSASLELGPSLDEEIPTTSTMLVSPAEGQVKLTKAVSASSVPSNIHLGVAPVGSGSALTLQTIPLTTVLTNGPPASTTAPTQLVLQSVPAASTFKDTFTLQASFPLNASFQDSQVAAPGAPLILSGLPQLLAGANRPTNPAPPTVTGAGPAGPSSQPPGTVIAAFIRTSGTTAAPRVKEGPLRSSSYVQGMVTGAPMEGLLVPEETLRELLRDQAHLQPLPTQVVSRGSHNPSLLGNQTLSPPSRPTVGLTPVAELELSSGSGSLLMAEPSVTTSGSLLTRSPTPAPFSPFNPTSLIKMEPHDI
UniProt Q01892: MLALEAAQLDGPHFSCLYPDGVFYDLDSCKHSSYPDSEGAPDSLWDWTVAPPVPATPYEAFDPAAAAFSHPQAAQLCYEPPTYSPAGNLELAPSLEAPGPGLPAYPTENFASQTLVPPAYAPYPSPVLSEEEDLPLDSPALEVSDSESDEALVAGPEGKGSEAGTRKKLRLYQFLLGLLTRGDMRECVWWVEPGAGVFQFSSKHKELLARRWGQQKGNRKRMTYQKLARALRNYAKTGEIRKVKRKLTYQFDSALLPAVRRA

Key:
Experiment in all cases: DAPPL (digital affinity profiling via proximity ligation, sequencing)
Conditions in all cases: 10 mM Tris-HCl pH 7.5, 50 mM NaCl, 1 mM DTT, 4% glycerol, room temperature, 30 min; GST-TFs on glutathione beads, 16-mer random dsDNA library, 0.1% …; high values mean tight binding; double strand, one strand shown; scale: fold enrichment (6-mer frequency, TF over GST control)
FLI1 = biological target: T1, FLI1 (UniProt Q01543)
T1 sequence: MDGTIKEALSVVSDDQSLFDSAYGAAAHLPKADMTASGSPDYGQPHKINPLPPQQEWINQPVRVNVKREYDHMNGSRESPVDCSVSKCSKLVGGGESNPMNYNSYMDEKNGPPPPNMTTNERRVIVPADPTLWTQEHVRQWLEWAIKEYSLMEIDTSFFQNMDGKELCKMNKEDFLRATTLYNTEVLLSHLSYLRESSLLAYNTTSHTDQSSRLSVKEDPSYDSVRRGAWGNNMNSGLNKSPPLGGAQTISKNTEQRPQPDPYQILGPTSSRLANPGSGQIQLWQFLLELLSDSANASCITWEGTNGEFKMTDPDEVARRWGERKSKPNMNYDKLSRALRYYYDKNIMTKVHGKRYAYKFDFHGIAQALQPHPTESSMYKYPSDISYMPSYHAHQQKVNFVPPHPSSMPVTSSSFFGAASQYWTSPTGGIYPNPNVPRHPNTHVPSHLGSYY

EHF = biological target: T2, EHF (UniProt Q9NZC4)
T2 sequence: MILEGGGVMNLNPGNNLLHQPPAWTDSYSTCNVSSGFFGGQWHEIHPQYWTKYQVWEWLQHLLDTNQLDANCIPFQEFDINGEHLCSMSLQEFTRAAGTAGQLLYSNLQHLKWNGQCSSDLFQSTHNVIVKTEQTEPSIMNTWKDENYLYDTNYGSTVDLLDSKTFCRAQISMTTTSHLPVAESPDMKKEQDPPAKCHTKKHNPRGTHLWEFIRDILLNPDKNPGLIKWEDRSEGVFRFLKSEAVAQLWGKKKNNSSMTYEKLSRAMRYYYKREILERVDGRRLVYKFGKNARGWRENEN

ELF4 = ELF4 (UniProt Q99607)
ETV2 = biological target: T3, ETV2 (UniProt O00321)
T3 sequence: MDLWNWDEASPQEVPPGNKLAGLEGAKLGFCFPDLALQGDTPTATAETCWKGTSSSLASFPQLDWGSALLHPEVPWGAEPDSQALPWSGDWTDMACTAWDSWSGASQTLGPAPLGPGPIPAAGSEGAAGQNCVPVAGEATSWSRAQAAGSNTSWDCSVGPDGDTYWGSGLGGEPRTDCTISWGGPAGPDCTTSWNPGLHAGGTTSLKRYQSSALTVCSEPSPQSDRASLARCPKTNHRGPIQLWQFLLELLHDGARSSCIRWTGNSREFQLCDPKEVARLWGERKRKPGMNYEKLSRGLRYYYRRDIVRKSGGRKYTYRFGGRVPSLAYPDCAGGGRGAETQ

ETV3L = biological target: T4, ETV3L (UniProt Q6ZN32)
T4 sequence: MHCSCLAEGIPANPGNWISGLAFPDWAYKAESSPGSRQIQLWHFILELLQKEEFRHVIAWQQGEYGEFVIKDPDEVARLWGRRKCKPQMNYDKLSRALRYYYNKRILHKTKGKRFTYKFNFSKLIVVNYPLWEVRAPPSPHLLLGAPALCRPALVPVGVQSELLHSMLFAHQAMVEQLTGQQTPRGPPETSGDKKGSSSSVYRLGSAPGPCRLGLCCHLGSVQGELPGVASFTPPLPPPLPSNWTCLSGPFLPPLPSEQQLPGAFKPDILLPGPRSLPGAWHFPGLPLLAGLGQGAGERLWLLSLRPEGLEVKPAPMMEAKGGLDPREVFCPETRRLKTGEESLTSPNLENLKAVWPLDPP

SPIB = SPIB (UniProt Q01892)

Row | Sequence | binding signal (FLI1) | binding signal (EHF) | binding signal (ELF4) | binding signal (ETV2) | binding signal (ETV3L) | binding signal (SPIB)
1 | GGGTAT | 0.956 | 0.959 | 0.888 | 0.981 | 0.945 | –
2 | GTTACA | 1.15 | – | 1.11 | 0.957 | – | –
3 | TAGTAG | 0.971 | 0.983 | 0.995 | 0.968 | 0.951 | –
4 | TACAGA | 1.08 | – | 1.13 | 1.25 | – | –
5 | GGCAAT | 0.997 | 0.944 | 0.958 | 0.849 | 0.948 | 0.973
6 | AGGGCT | 1.03 | 1.04 | 1.07 | 0.826 | 1.06 | 0.905
7 | TGGAAC | 0.948 | 1.04 | 0.955 | 0.993 | 0.981 | –
8 | TCATAA | 1.03 | 0.992 | 0.993 | 0.919 | 1 | 0.986
9 | AGAGCT | 0.969 | – | 0.955 | 0.894 | 0.884 | 0.844
10 | GGTACT | 1.25 | – | 1.24 | 0.991 | – | –
11 | CATAGT | 0.986 | 0.982 | 0.996 | 0.973 | 0.952 | 0.993
12 | CATAAG | 0.923 | 0.946 | 0.951 | 0.882 | 0.93 | 0.887
13 | GTTGGT | 0.926 | 0.993 | 0.983 | 0.821 | 0.956 | 0.913
14 | AGCAAC | 1 | – | 1.1 | 0.941 | 0.974 | –
15 | GGGGCT | 0.999 | 0.938 | 1.1 | 0.934 | 1.22 | –
16 | CGACGG | 0.916 | 0.983 | 0.952 | 0.976 | 0.982 | 0.959
17 | TGGAAG | 0.902 | 0.994 | 0.935 | 0.91 | 0.939 | –
18 | CATCCA | 1.01 | 0.981 | 1.02 | 0.987 | 0.985 | –
19 | CGAACG | 0.914 | – | 0.958 | 1.09 | 0.983 | 0.991
20 | GCGAAA | 0.952 | 0.931 | 0.962 | 0.898 | 0.945 | 0.965

An excerpt of these results, comma-delimited:
Row,Sequence,binding signal (FLI1),binding signal (EHF),binding signal (ELF4),binding signal (ETV2),binding signal (ETV3L),binding signal (SPIB)
12,CATAAG,0.923,0.946,0.951,0.882,0.93,0.887
16,CGACGG,0.916,0.983,0.952,0.976,0.982,0.959
20,GCGAAA,0.952,0.931,0.962,0.898,0.945,0.965
